Results deposited as PubChem BioAssay AID1224828 (NIAID, 2016).
Assay: 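Knock-downs that increase or decrease LPS-induced p65 nuclear translocation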 (primary screen). Cells: mouse RAW264.7 G9 macrophage reporter cells (GFP-p65, Tnf promoter-mCherry). Knock-down reagent: siRNA pool against mouse genes, 100 nM. Time to read-out: 2 days siRNA transfection, then 40 min LPS before fixation. Conditions: LPS (Salmonella minnesota R595) at 10 ng/ml. Measured: 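Imaged p65 nuclear translocation ratio, normalised to the plate median, converted to robust z-scores and averaged across two replicates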. Reading the numbers: p65 translocation robust z-score: higher = more nuclear NF-kappaB p65 after LPS than the plate median; nuclear/cytoplasmic p65 ratio: higher = more nuclear NF-kappaB p65. Active means: 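Active if robust z is above 3.3 (negative regulators) or below -1.56, the Tlr4 control median (positive regulators); activity score 50 or more; control wells not called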. Meaning of the calls: active = hit (p65 shift raised or lowered); inactive = no clear change.
Shown is a random part of about 17,000 reagents tested. 762 of all reagents (4.5%) were called active. 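Active calls include both raised and lowered p65 entry, mostly lowered; wells with fewer than 50 cells lack a z-score.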 The raw values are shown without normalisation. The numbers tell different reagents against one gene apart. A reagent listed more than once was tested more than once; the source does not tell the runs apart. No sequences are given here.

no.	gene	reagent	p65 translocation robust z-score	nuclear/cytoplasmic p65 ratio, rep 1	nuclear/cytoplasmic p65 ratio, rep 2	low cell count flag	activity call
1	Pelp1 (proline, glutamic acid and leucine rich protein 1)	1	0.54	1.64	1.75	enough cells to score	inactive
2	Uqcrc2 (ubiquinol cytochrome c reductase core protein 2)	1	0.5	1.51	1.64	enough cells to score	inactive
3	Or1j4 (olfactory receptor family 1 subfamily J member 4)	1	-1.92	1.31	1.18	enough cells to score	active
4	Spn (sialophorin)	1	-0.82	1.42	1.45	enough cells to score	inactive
5	Gm10336 (predicted gene 10336)	1	0.91	1.66	1.72	enough cells to score	inactive
6	Dlx2 (distal-less homeobox 2)	1	-0.22	1.47	1.33	enough cells to score	inactive
7	Or8g21 (olfactory receptor family 8 subfamily G member 21)	1	2.36	1.73	1.53	enough cells to score	inactive
8	Fry (FRY microtubule binding protein)	1	-0.63	1.45	1.49	enough cells to score	inactive
9	Fry (FRY microtubule binding protein)	2	-0.47	1.38	1.46	enough cells to score	inactive
10	Zfp28 (zinc finger protein 28)	1		1.18	1.29	fewer than 50 cells per well; well left out of scoring	inactive
11	Zfp28 (zinc finger protein 28)	2		1.18	1.39	fewer than 50 cells per well; well left out of scoring	inactive
12	Golph3 (golgi phosphoprotein 3)	1	0.81	1.79	1.64	enough cells to score	inactive
13	Dbf4 (DBF4 zinc finger)	1	1.26	1.94	1.51	enough cells to score	inactive
14	9030203C11Rik (RIKEN cDNA 9030203C11 gene)	1		1.14	1.32	fewer than 50 cells per well; well left out of scoring	inactive
15	Ttc33 (tetratricopeptide repeat domain 33)	1		1.32	1.32	fewer than 50 cells per well; well left out of scoring	inactive
16	Acadm (acyl-Coenzyme A dehydrogenase, medium chain)	1	0.2	1.7	1.6	enough cells to score	inactive
17	Fdft1 (farnesyl diphosphate farnesyl transferase 1)	1	-0.28	1.44	1.33	enough cells to score	inactive
18	Cyp4f18 (cytochrome P450, family 4, subfamily f, polypeptide 18)	1	0.09	1.57	1.82	enough cells to score	inactive
19	Hsd17b14 (hydroxysteroid (17-beta) dehydrogenase 14)	1	-1.57	1.39	1.16	enough cells to score	active
20	Cd109 (CD109 antigen)	1	0.17	1.64	1.78	enough cells to score	inactive
21	Prkd2 (protein kinase D2)	1	0.47	1.7	1.5	enough cells to score	inactive
22	Znhit2 (zinc finger, HIT domain containing 2)	1		1.28	1.42	fewer than 50 cells per well; well left out of scoring	inactive
23	Ankar (ankyrin and armadillo repeat containing)	1		1.36	1.25	fewer than 50 cells per well; well left out of scoring	inactive
24	5330439M10Rik (RIKEN cDNA 5330439M10 gene)	1		1.14	2.33	fewer than 50 cells per well; well left out of scoring	inactive
25	Tbc1d10b (TBC1 domain family, member 10b)	1	0.45	1.6	1.51	enough cells to score	inactive
26	Eif2s1 (eukaryotic translation initiation factor 2, subunit 1 alpha)	1	0.63	1.57	1.42	enough cells to score	inactive
27	Ugt3a2 (UDP glycosyltransferases 3 family, polypeptide A2)	1	-1.47	1.33	1.51	enough cells to score	inactive
28	Ndp (Norrie disease (pseudoglioma) (human))	1	0.1	1.51	1.31	enough cells to score	inactive
29	Slc1a3	1	-1.08	1.33	1.13	enough cells to score	inactive

7 entries from above, showing only “nuclear/cytoplasmic p65 ratio, rep 2”:
Zfp28 (zinc finger protein 28) #1: 1.29
Zfp28 (zinc finger protein 28) #2: 1.39
Golph3 (golgi phosphoprotein 3): 1.64
Dbf4 (DBF4 zinc finger): 1.51
9030203C11Rik (RIKEN cDNA 9030203C11 gene): 1.32
Ttc33 (tetratricopeptide repeat domain 33): 1.32
Acadm (acyl-Coenzyme A dehydrogenase, medium chain): 1.6

Continued.
no.	gene	reagent	p65 translocation robust z-score	nuclear/cytoplasmic p65 ratio, rep 1	nuclear/cytoplasmic p65 ratio, rep 2	low cell count flag	activity call
30	F2r (coagulation factor II thrombin receptor)	1	-0.4	1.43	1.55	enough cells to score	inactive
31	Or10ak16 (olfactory receptor family 10 subfamily AK member 16)	1	0.24	1.59	1.5	enough cells to score	inactive
32	Hgd (homogentisate 1, 2-dioxygenase)	1	-0.72	1.3	1.32	enough cells to score	inactive
33	Bmpr2 (bone morphogenetic protein receptor type 2)	1	-1.63	1.46	1.16	enough cells to score	active
34	Lrrk2 (leucine-rich repeat kinase 2)	1		1.85	1.44	fewer than 50 cells per well; well left out of scoring	inactive
35	Lrrk2 (leucine-rich repeat kinase 2)	1		1.35	1.23	fewer than 50 cells per well; well left out of scoring	inactive
36	Myo1g (myosin IG)	1	-0.27	1.65	1.63	enough cells to score	inactive
37	Acat3 (acetyl-Coenzyme A acetyltransferase 3)	1	-0.34	1.59	1.54	enough cells to score	inactive
38	Uqcrc1 (ubiquinol-cytochrome c reductase core protein 1)	1	-0.66	1.49	1.35	enough cells to score	inactive
39	Mgat5b (mannoside acetylglucosaminyltransferase 5, isoenzyme B)	1	0.86	1.49	1.68	enough cells to score	inactive
40	Arpc3 (actin related protein 2/3 complex, subunit 3)	1	0.21	1.66	1.64	enough cells to score	inactive
41	Or5m10b (olfactory receptor family 5 subfamily M member 10B)	1	0.72	1.76	1.69	enough cells to score	inactive
42	Cacng2 (calcium channel, voltage-dependent, gamma subunit 2)	1	-0.08	1.62	1.73	enough cells to score	inactive
43	Dbil5 (diazepam binding inhibitor-like 5)	1	-1.32	1.41	1.33	enough cells to score	inactive
44	Slc5a1	1	0.84	1.58	1.69	enough cells to score	inactive
45	Tap2 (transporter 2, ATP-binding cassette, sub-family B (MDR/TAP))	1	0.1	1.47	1.6	enough cells to score	inactive
46	Cenpt (centromere protein T)	1	-0.4	1.49	1.45	enough cells to score	inactive
47	4933427D14Rik (RIKEN cDNA 4933427D14 gene)	1		1.31	1.4	fewer than 50 cells per well; well left out of scoring	inactive
48	Hmces (5-hydroxymethylcytosine (hmC) binding, ES cell specific)	1	-1.35	1.28	1.31	enough cells to score	inactive
49	Rps24 (ribosomal protein S24)	1		1.32	1.09	fewer than 50 cells per well; well left out of scoring	inactive
50	Golim4 (golgi integral membrane protein 4)	1	-0.5	1.56	1.48	enough cells to score	inactive
51	Klk1b1 (kallikrein 1-related peptidase b1)	1	1.66	1.77	1.67	enough cells to score	inactive
52	Large1 (LARGE xylosyl- and glucuronyltransferase 1)	1	-0.92	1.44	1.18	enough cells to score	inactive
53	Slc35d2	1	-2.11	1.18	1.09	enough cells to score	active
54	Grin3b (glutamate receptor, ionotropic, NMDA3B)	1	0.92	1.79	1.67	enough cells to score	inactive
55	Sh3glb2 (SH3-domain GRB2-like endophilin B2)	1	-0.29	1.34	1.25	enough cells to score	inactive
56	Or6c68 (olfactory receptor family 6 subfamily C member 68)	1		1.58	0	fewer than 50 cells per well; well left out of scoring	inactive
57	Nkx2-5 (NK2 homeobox 5)	1	1.13	1.54	1.62	enough cells to score	inactive
58	Iqcc (IQ motif containing C)	1	-1.38	1.39	1.59	enough cells to score	inactive
59	Prkag1 (protein kinase, AMP-activated, gamma 1 non-catalytic subunit)	1	-0.13	1.67	1.44	enough cells to score	inactive
